Results are given in words; binding and its absence hold for the method and conditions named. For part of these data: Binding can be weak; no strength is given. For part of these data: Sequences can lack the tags named with a protein.
How the values were obtained:
[1] = molecular target: T1, Xyr1 middle homology region MHR2 (aa 314~632), two-hybrid bait in pGBKT7 (Trichoderma reesei) (UniProt G0RLE8); test: two-hybrid; pairwise test: MAT1-2-1 with different regions of Xyr1 as bait (pGBKT7) in Y2H Gold; serial dilutions spotted on DDO and on QDO with AbA, 30 °C, 3 days
T1 sequence: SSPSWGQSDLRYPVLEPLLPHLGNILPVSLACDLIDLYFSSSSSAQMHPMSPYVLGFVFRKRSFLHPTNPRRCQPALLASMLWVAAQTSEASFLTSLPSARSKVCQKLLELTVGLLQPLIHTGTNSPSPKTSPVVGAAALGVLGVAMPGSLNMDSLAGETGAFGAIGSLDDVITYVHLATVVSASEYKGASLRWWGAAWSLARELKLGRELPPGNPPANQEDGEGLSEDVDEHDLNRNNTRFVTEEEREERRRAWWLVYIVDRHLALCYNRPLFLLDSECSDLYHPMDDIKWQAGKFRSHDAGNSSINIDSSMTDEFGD

[2] = molecular target: T2, Xyr1 extended middle homology region MHR1 (aa 314~772), two-hybrid bait in pGBKT7 (Trichoderma reesei) (UniProt G0RLE8); test: as above
T2 sequence: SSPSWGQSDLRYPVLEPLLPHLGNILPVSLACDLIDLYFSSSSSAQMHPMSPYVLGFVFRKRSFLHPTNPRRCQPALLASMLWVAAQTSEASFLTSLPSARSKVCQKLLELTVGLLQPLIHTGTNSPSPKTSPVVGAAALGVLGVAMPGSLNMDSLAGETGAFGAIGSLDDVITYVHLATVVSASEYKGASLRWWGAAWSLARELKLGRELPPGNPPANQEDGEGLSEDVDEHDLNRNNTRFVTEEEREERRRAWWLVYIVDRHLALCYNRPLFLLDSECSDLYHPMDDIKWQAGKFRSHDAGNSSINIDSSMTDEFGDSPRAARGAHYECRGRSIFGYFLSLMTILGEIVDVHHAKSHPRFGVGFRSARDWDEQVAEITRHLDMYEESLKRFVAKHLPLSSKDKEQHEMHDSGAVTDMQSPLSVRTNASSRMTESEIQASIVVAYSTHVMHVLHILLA

[3] = molecular target: T3, GST-Xyr1 MHR2 (Trichoderma reesei) (UniProt G0RLE8); test: pull-down; GST pull-down: purified 6 x His MAT1-2-1 incubated with glutathione sepharose bead-coupled GST, GST-Xyr1 AD or GST-Xyr1 MHR2, room temperature, half an hour; washed three times with PBST (0.5% Triton X-100, pH 7.4); Western blot with anti-His antibody; both purified
T3 sequence: T1 sequence

Row | binding [1] | binding [2] | binding [3] | Substance
1 | binds | no binding |  | mating type locus protein MAT1-2-1 (two-hybrid prey from the T. reesei cDNA library) (Trichoderma reesei)
2 |  |  | binds | recombinant 6 x His-MAT1-2-1 (Trichoderma reesei)

Source: publication PMC5725425
